Data from the supplement of paper PMC12819154, “High-throughput peptide-centric local stability assay extends protein–ligand identification to membrane proteins, tissues and bacteria” (Nature Structural & Molecular Biology, 2025).
The list shows a part of the results. Small differences around the control level are noise.

By UniProt entry, the sequences of proteins in these tests, tags left out. Where a name states a change or a piece, a line headed by the entry shows the natural chain unless it says otherwise.
UniProt Q8C129, whole entry: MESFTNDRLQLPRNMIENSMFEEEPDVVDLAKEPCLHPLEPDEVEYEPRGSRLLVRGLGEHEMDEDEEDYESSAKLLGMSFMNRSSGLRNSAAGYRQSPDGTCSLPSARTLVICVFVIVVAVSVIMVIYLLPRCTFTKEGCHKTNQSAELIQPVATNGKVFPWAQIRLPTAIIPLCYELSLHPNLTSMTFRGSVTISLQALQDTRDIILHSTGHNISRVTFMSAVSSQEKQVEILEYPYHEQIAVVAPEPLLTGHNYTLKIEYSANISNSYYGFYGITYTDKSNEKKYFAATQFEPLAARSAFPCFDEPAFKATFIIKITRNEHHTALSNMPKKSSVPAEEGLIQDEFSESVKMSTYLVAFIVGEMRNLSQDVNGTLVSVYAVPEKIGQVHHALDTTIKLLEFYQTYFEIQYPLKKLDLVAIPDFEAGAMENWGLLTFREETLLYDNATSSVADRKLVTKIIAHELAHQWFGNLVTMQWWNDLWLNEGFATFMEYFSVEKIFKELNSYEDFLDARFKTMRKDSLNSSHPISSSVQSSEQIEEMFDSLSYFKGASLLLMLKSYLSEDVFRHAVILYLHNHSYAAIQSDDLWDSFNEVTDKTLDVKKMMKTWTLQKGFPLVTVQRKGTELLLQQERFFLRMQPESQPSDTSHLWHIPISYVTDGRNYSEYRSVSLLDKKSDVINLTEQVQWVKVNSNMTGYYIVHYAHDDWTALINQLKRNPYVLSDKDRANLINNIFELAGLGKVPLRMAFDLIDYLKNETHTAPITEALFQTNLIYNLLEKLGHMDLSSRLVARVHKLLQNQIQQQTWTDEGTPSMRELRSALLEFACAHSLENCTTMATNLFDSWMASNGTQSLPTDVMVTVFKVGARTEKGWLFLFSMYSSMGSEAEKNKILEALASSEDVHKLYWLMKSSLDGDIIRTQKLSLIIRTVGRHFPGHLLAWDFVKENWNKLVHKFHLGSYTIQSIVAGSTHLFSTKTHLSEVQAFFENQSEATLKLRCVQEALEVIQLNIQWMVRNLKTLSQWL
UniProt Q8BVW3: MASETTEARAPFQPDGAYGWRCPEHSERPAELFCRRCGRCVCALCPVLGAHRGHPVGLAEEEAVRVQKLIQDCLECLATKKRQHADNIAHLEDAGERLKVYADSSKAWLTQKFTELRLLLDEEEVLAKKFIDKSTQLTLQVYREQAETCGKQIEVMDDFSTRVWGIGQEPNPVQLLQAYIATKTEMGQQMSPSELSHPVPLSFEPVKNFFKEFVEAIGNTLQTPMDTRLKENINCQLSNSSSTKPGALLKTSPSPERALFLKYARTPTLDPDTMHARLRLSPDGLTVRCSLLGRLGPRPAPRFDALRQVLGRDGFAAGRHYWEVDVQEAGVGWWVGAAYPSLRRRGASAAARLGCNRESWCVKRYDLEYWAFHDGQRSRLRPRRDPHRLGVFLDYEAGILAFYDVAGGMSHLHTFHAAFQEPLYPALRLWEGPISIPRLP
UniProt Q8C7V3: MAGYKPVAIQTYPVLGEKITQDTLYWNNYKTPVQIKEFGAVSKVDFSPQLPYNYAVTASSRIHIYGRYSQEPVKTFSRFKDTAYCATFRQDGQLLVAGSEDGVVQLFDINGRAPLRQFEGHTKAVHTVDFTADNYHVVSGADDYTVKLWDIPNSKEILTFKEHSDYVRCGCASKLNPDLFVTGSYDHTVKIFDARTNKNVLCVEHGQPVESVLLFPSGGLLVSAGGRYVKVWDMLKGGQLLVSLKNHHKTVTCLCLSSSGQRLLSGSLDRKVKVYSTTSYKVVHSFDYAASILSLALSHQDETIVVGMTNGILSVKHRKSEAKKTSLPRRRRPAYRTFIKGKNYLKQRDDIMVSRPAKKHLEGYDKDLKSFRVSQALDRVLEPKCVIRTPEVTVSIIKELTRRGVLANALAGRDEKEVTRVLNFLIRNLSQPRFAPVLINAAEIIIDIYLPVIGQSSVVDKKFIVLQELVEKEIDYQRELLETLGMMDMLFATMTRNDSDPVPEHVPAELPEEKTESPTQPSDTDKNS
UniProt Q8C0D9: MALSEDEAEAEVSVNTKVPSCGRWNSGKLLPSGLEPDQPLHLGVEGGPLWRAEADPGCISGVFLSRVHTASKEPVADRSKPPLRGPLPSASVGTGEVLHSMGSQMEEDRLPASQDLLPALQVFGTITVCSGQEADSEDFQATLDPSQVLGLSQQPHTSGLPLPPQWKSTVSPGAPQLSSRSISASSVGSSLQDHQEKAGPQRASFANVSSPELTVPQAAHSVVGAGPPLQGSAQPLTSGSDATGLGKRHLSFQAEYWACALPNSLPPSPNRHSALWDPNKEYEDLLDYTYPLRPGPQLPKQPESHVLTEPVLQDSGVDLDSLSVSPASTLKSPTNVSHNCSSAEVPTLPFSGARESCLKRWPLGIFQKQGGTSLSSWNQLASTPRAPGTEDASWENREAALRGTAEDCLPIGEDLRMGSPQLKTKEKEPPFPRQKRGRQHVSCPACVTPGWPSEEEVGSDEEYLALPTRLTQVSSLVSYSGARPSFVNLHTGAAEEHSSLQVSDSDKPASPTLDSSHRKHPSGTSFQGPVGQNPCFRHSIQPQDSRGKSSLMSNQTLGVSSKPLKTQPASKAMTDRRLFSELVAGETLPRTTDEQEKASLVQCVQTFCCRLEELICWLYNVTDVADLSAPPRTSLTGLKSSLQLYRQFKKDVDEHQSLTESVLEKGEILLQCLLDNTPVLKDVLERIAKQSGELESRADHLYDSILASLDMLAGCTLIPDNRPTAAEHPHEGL
UniProt Q8C2E7: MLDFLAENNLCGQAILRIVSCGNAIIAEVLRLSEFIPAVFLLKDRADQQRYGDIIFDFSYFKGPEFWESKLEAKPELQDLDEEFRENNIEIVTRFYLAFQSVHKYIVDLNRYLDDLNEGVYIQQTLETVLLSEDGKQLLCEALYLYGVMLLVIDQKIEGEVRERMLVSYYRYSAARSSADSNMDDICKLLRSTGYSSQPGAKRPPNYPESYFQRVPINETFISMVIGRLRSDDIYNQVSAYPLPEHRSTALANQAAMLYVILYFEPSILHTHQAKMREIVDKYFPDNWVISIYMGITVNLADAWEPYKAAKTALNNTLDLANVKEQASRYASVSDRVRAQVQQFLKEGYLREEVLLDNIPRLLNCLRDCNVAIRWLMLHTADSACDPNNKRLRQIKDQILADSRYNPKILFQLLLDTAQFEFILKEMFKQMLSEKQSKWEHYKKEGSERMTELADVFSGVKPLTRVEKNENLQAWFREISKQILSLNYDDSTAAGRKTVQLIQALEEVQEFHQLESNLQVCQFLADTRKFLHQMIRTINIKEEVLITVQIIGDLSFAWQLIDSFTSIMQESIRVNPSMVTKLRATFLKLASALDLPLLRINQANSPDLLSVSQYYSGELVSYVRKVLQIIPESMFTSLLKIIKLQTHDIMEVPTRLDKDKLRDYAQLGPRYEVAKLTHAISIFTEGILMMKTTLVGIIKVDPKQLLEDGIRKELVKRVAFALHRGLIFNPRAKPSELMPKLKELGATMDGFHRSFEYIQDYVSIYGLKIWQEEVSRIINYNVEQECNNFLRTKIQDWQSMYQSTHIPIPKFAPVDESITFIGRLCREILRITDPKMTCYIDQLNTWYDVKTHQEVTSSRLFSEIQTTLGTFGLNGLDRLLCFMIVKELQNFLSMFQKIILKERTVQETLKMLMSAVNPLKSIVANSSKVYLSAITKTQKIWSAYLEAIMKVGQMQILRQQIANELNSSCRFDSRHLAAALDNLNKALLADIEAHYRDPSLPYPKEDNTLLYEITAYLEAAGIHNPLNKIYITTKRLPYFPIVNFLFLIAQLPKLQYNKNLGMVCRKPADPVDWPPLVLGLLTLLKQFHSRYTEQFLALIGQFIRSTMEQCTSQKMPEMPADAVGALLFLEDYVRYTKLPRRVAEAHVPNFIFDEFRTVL
UniProt Q8BZ05: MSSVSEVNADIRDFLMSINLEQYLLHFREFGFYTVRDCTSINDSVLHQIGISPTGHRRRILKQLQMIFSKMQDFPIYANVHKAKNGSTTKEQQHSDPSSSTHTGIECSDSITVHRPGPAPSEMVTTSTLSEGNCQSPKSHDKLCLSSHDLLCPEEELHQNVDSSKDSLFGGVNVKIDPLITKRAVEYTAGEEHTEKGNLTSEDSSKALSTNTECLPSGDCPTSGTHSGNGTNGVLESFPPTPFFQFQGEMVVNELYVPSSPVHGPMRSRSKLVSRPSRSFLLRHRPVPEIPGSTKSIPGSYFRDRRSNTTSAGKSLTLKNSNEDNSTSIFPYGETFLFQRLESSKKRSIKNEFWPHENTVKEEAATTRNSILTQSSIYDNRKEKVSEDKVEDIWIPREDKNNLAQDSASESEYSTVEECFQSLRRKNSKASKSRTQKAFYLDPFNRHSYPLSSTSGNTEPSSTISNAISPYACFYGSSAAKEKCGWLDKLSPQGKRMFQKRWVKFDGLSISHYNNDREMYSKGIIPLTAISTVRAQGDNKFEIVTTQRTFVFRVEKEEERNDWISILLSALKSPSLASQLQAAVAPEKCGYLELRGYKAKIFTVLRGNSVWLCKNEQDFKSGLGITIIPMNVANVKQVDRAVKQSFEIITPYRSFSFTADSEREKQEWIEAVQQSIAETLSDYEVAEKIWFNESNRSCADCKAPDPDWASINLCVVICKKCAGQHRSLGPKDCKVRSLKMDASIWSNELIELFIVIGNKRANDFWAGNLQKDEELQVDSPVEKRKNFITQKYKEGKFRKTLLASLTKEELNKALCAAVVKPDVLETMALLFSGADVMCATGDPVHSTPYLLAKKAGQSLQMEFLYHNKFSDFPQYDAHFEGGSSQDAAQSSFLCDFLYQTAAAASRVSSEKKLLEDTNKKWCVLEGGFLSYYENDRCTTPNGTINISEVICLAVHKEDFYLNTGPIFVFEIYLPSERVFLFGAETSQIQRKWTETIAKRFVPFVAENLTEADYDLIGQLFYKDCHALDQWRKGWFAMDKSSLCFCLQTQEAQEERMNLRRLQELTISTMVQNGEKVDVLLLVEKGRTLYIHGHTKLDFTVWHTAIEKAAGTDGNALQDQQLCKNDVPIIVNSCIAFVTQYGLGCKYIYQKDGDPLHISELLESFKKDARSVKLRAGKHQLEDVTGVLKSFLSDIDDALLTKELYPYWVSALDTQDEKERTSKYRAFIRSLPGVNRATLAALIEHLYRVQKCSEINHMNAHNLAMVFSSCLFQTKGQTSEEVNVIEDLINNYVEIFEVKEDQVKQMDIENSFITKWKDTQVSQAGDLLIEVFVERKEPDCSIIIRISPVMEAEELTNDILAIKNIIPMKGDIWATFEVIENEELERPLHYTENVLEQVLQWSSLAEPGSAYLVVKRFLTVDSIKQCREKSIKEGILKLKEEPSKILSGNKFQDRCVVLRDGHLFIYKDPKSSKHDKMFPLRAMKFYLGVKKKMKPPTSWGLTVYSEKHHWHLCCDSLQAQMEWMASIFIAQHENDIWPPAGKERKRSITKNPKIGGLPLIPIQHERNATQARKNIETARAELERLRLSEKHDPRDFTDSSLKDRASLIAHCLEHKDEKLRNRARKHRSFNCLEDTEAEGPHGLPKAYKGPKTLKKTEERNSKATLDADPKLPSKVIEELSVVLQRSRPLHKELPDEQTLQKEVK
UniProt Q8C025: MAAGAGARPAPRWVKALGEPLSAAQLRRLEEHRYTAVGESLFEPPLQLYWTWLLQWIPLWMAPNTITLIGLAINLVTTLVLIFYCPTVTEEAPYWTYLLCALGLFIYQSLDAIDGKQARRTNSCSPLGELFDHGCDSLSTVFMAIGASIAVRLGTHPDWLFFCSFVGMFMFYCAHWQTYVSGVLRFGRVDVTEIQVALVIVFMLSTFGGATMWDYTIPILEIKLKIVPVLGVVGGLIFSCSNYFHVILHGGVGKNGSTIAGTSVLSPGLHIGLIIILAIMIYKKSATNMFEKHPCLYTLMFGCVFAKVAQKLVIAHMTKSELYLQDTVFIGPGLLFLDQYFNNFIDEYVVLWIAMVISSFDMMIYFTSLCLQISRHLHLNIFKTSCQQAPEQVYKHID
UniProt Q8BVL3: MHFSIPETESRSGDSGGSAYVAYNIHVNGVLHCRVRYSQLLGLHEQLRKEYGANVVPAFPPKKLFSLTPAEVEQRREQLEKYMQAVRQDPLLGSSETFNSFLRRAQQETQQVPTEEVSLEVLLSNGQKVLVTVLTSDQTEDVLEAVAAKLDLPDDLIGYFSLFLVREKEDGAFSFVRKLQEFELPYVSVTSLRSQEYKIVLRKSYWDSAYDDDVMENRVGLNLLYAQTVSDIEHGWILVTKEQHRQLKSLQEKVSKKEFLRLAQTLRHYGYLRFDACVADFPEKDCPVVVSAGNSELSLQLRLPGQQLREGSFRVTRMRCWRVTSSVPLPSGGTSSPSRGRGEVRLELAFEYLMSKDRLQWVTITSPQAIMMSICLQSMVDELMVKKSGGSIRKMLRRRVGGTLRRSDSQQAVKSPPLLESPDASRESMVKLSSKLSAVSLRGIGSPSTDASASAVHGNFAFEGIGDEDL

Compound: CN[C@@H]1C[C@H]2O[C@@](C)([C@@H]1OC)n1c3ccccc3c3c4c(c5c6ccccc6n2c5c31)C(=O)NC4 [staurosporine]
Assay: log2 fold change of tryptic peptide abundance, ligand vs vehicle (limited proteolysis) (log2 ratio); higher = more trypsin-susceptible (destabilized)
Details: ligand concentration: 20 uM; sample: mouse liver crude lysate; replicate design: treated separately

| Target | log2 fold change |
| --- | --- |
| UniProt Q8C0D0 (peptide sequence: GPTSAELLNR, peptide start residue: 67) | -0.274 |
| UniProt Q8C129 (peptide sequence: LLGMSFMNR, peptide start residue: 76) | -0.0529 |
| UniProt Q8BWT1 (peptide sequence: TPFGAYGGLLK, peptide start residue: 15) | -0.153 |
| UniProt Q8BYL4 (peptide sequence: GLEALAANHAR, peptide start residue: 142) | 0.157 |
| UniProt Q8BX80 (peptide sequence: RINEDQEEEAVFR, peptide start residue: 40) | 0.239 |
| UniProt Q8BVW3 (peptide sequence: GHPVGLAEEEAVR, peptide start residue: 53) | -0.281 |
| UniProt Q8BVU0 (peptide sequence: ESQYQENR, peptide start residue: 351) | -0.306 |
| UniProt Q8CAK1 (peptide sequence: AAYAHFLNVQGR, peptide start residue: 94) | -0.643 |
| UniProt Q8BWU8 (peptide sequence: QMELLNTNSR, peptide start residue: 73) | -0.192 |
| UniProt Q8C7V3 (peptide sequence: VLNFLIR, peptide start residue: 421) | -0.359 |
| UniProt Q8C0D9 (peptide sequence: SISASSVGSSLQDHQEK, peptide start residue: 181) | -0.244 |
| UniProt Q8BWR8 (peptide sequence: ITFPDFSK, peptide start residue: 482) | 0.567 |
| UniProt Q8BW72 (peptide sequence: ISMDVFVR, peptide start residue: 316) | 0.167 |
| UniProt Q8BWR2 (peptide sequence: VHQVTPQTHFIS, peptide start residue: 200) | -0.153 |
| UniProt Q8BWZ3 (peptide sequence: KMQQAGMALYK, peptide start residue: 131) | 0.288 |
| UniProt Q8C407 (peptide sequence: ESTATTFLR, peptide start residue: 50) | 0.266 |

Nothing new here: an excerpt of the list.

| Target | log2 fold change |
| --- | --- |
| UniProt Q8C129 (peptide sequence: LLGMSFMNR, peptide start residue: 76) | -0.0529 |
| UniProt Q8BWT1 (peptide sequence: TPFGAYGGLLK, peptide start residue: 15) | -0.153 |
| UniProt Q8BYL4 (peptide sequence: GLEALAANHAR, peptide start residue: 142) | 0.157 |
| UniProt Q8BX80 (peptide sequence: RINEDQEEEAVFR, peptide start residue: 40) | 0.239 |
| UniProt Q8BVW3 (peptide sequence: GHPVGLAEEEAVR, peptide start residue: 53) | -0.281 |
| UniProt Q8BVU0 (peptide sequence: ESQYQENR, peptide start residue: 351) | -0.306 |
| UniProt Q8CAK1 (peptide sequence: AAYAHFLNVQGR, peptide start residue: 94) | -0.643 |
| UniProt Q8BWU8 (peptide sequence: QMELLNTNSR, peptide start residue: 73) | -0.192 |
| UniProt Q8C7V3 (peptide sequence: VLNFLIR, peptide start residue: 421) | -0.359 |

Going on with the list:

| Target | log2 fold change |
| --- | --- |
| UniProt Q8C2E7 (peptide sequence: SSADSNMDDICK, peptide start residue: 177) | -0.973 |
| UniProt Q8BZ05 (peptide sequence: IGGLPLIPIQHER, peptide start residue: 1553) | -0.252 |
| UniProt Q8C0N2 (peptide sequence: ACPHVWFER, peptide start residue: 284) | 0.352 |
| UniProt Q8C5P7 (peptide sequence: LTAEDVVADHTEDDR, peptide start residue: 110) | -0.277 |
| UniProt Q8C0T5 (peptide sequence: KPEGTINSVGFMDTR, peptide start residue: 1468) | -0.426 |
| UniProt Q8C2L6 (peptide sequence: KYNGHIENKPLTIPK, peptide start residue: 65) | 0.13 |
| UniProt Q8C025 (peptide sequence: ALGEPLSAAQLR, peptide start residue: 16) | 0.356 |
| UniProt Q8C0C0 (peptide sequence: NGSEAAHQYAKDPK, peptide start residue: 722) | 0.425 |
| UniProt Q8BVL3 (peptide sequence: YSQLLGLHEQLRK, peptide start residue: 37) | 0.291 |
| UniProt Q8C735 (peptide sequence: FTATMSTPDKK, peptide start residue: 90) | -0.54 |
| UniProt Q8C4Q6 (peptide sequence: EAQAQHNNSEFTEEQKK, peptide start residue: 45) | 0.22 |
| UniProt Q8C2Q3 (peptide sequence: RLSESQLSFR, peptide start residue: 616) | 0.595 |
| UniProt Q8BXC6 (peptide sequence: LDVQLASR, peptide start residue: 131) | 0.105 |
| UniProt Q8CA72 (peptide sequence: KIGCYAAMK, peptide start residue: 412) | 0.388 |
| UniProt Q8C6B2 (peptide sequence: TFSLDAAPADHSLGPSR, peptide start residue: 518) | -0.432 |
